Results on one substance are retold here after patent US20250082781A1, “METHODS OF LOWERING BLOOD GLUCOSE AND TREATING TYPE 2 DIABETES BY ACTIVATION OF PDE4D3” (Salk Institute for Biological Studies, priority 2021, published 2025).

The nature of this data set: Serum leptin levels after FGF1 injection. It is filed as in vivo, mouse. As to conditions: 30 min after FGF1 injection.

For the substance “FGF1: Recombinant fibroblast growth factor 1 protein, dissolved in PBS, injected subcutaneously”, under “HFD-fed”, the HFD-fed serum leptin was 121.25 ± 6 ng/mL. In addition, the “Chow -fed serum leptin” value (chow-fed) amounted to 0.95 ± 0.15 ng/mL.
